# PubChem BioAssay AID1259308 | NCATS, 2017
# Screen: 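Knock-downs that increase output of a recombinant reporter protein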 (primary screen)
# System: human HEK293 embryonic kidney cells stably expressing firefly luciferase (HEK-CMV-Luc2-Hygro)
# Reagent: single siRNA against human genes, 0.8 pmol siRNA per well
# Timing: 72 h
# Measurement: 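Reporter luminescence and viable-cell signal on separate replicate plates, given as percent of non-targeting control and median/MAD z-scores, plus per-cell luciferase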
# Reading the numbers: total luciferase, z-score and total luciferase, % of control: higher = more reporter protein produced; luciferase per cell, z-score: higher = more reporter output per viable cell; viable cells, % of control: higher = more viable cells
# Hit rule: 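An siRNA counts as active if its total luciferase robust z-score exceeds 3; genes with two or more such siRNAs out of three were retested with fresh siRNAs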
# Calls: active = raised luciferase; inactive = no rise
# The whole screen tested about 59,000 reagents; this is a random part of them. About 1,510 of them (2.6%) were called active. 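Calls use total luciferase alone and ignore viability, so some active siRNAs may act by altering cell number.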 The numbers tell different reagents against one gene apart. No sequences are given here.
The opening 3 entries, to show the layout:
gene,reagent,"total luciferase, z-score","total luciferase, % of control","luciferase per cell, z-score","viable cells, % of control",Outcome
CADM3,1,1.24,107,1.26,85.5,inactive
CADM3,2,2.56,133,1.64,96.3,inactive
CADM3,3,-0.712,67.7,-1.01,98.8,inactive

Main list, repeating the preview:
gene,reagent,"total luciferase, z-score","total luciferase, % of control","luciferase per cell, z-score","viable cells, % of control",Outcome
CADM3,1,1.24,107,1.26,85.5,inactive
CADM3,2,2.56,133,1.64,96.3,inactive
CADM3,3,-0.712,67.7,-1.01,98.8,inactive
LSM8,1,1.03,102,2.65,56.9,inactive
LSM8,2,1.39,110,1.62,79.8,inactive
LSM8,3,0.084,83.6,1.16,68.8,inactive
CABP4,1,-0.323,75.5,-0.584,98.3,inactive
CABP4,2,-0.976,62.5,-1.7,109,inactive
CABP4,3,0.206,86,0.248,90,inactive
NT5M,1,0.474,91.3,0.811,82.4,inactive
NT5M,2,1.53,112,1.04,95.6,inactive
NT5M,3,1.17,105,0.687,98.1,inactive
OR14K1,1,-0.32,75.5,0.365,76.7,inactive
OR14K1,2,-1.07,60.6,-0.063,68.9,inactive
OR14K1,3,0.715,96.1,0.295,99.4,inactive
KLHL23,1,-0.698,68,-0.227,80.7,inactive
KLHL23,2,0.126,84.4,0.511,82.4,inactive
KLHL23,3,-0.335,75.2,-0.339,91.9,inactive
PLAAT4,1,0.532,92.5,0.102,101,inactive
PLAAT4,2,0.13,84.5,-0.376,104,inactive
PLAAT4,3,-1.83,45.5,-1.87,83.3,inactive
P2RY1,1,0.534,92.5,3.36,42.7,inactive
P2RY1,2,0.264,87.1,-0.396,108,inactive
P2RY1,3,-1.13,59.5,0.287,61.7,inactive
CCNG1,1,0.913,100,1.47,76,inactive
CCNG1,2,1.29,108,0.812,97.1,inactive
CCNG1,3,-0.401,73.9,-0.613,97.1,inactive
ZNF474,1,-1.82,45.7,-1.95,85.3,inactive
ZNF474,2,0.309,88,-0.299,106,inactive
ZNF474,3,-1.03,61.5,-1.13,92.5,inactive
LOC728158,1,1.83,118,1.5,89,inactive
LOC728158,2,-1.39,54.3,-1.39,87.4,inactive
LOC728158,3,-1.87,44.7,-2.05,85.6,inactive
MCAT,1,2.31,128,1.55,94.9,inactive
MCAT,2,0.188,85.6,0.0108,95.4,inactive
MCAT,3,0.988,102,0.498,99.5,inactive
LOC401068 (retired record),1,0.0221,82.3,-0.262,98.6,inactive
LOC401068 (retired record),2,0.339,88.6,1.11,74,inactive
LOC401068 (retired record),3,0.0994,83.9,-0.354,103,inactive
